The assay has as its target KVβ1.2 subunit. The experiment in a line: co-IP; HEK293 cells cotransfected with or without KV1.5, KVβ1.2, Lgi3 and Lgi4; total lysates immunoprecipitated against KVβ1.2, immunoblotted for KV1.5, FLAG (Lgi3-4) and KVβ1.2. A general note: Immunoblotting shows a protein as a band on a membrane.

Results are given in words; binding and its absence hold for the method and conditions named. Binding seen in cells or lysates may run through a third protein. Binding calls can cover weak binding; strength is not graded here. Tags and fused reporters may be left off the sequences shown.

B1: Lgi4 (FLAG-tagged) (protein, UniProt Q8N135-1 20-537)
chain: WRPPKGKCPLRCSCSKDSALCEGSPDLPVSFSPTLLSLSLVRTGVTQLKAGSFLRIPSLHLLLFTSNSFSVIEDDAFAGLSHLQYLFIEDNEIGSISKNALRGLRSLTHLSLANNHLETLPRFLFRGLDTLTHVDLRGNPFQCDCRVLWLLQWMPTVNASVGTGACAGPASLSHMQLHHLDPKTFKCRAIELSWFQTVGESALSVEPFSYQGEPHIVLAQPFAGRCLILSWDYSLQRFRPEEELPAASVVSCKPLVLGPSLFVLAARLWGGSQLWARPSPGLRLAPTQTLAPRRLLRPNDAELLWLEGQPCFVVADASKAGSTTLLCRDGPGFYPHQSLHAWHRDTDAEALELDGRPHLLLASASQRPVLFHWTGGRFERRTDIPEAEDVYATRHFQAGGDVFLCLTRYIGDSMVMRWDGSMFRLLQQLPSRGAHVFQPLLIARDQLAILGSDFAFSQVLRLEPDKGLLEPLQELGPPALVAPRAFAHITMAGRRFLFAACFKGPTQIYQHHEIDLSA
In the case of B1, the binding result is listed as “binds”.

B2: Lgi3 (FLAG-tagged) (protein, UniProt Q8N145 31-548)
chain: KRPPKTPPCPPSCSCTRDTAFCVDSKAVPRNLPSEVISLTLVNAAFSEIQDGAFSHLPLLQFLLLNSNKFTLIGDNAFTGLSHLQYLFIENNDIWALSKFTFRGLKSLTHLSLANNNLQTLPRDIFRPLDILNDLDLRGNSLNCDCKVKWLVEWLAHTNTTVAPIYCASPPRFQEHKVQDLPLREFDCITTDFVLYQTLAFPAVSAEPFLYSSDLYLALAQPGVSACTILKWDYVERQLRDYDRIPAPSAVHCKPMVVDSQLYVVVAQLFGGSYIYHWDPNTTRFTRLQDIDPQRVRKPNDLEAFRIDGDWYFAVADSSKAGATSLYRWHQNGFYSHQALHPWHRDTDLEFVDGEGKPRLIVSSSSQAPVIYQWSRTQKQFVAQGEVTQVPDAQAVKHFRAGRDSYLCLSRYIGDSKILRWEGTRFSEVQALPSRGSLALQPFLVGGRRYLALGSDFSFTQIYQWDEGRQKFVRFQELAVQAPRAFCYMPAGDAQLLLAPSFKGQTLVYRHIVVDLSA
For the molecule B2, the binding entry is listed as “binds”.

(Values after publication PMC13196873.)
